Among the data in PubChem BioAssay AID248 (DTP/NCI, 2004) are T/C and survivor count values, retold here.

The list is a part of this screen's results and no random one: it gathers some chemical classes. Not every dose and run of a compound is shown. T/C gives the treated animals as a percentage of the vehicle group. Some doses have a count of surviving animals in place of a T/C: the source files T/C as zero there, which appears to mark a toxic dose or a test without result, not a measured value. Some survivor counts are full or nearly so, which does not show that the dose was tolerated: survival well below the control is almost never listed, so the zero probably covers shortened survival too. Counts of survivors are from the toxicity check (mostly the fifth day) where no day follows; animals may have died later. Schedule codes are those of the source, taken here to give the interval after Q, in days (D) or hours (H), and the number of doses after X. For survival time, the PubChem record calls one and a half times the control and up active, and a quarter to a half above the control has no call in these data; cut-offs in other NCI protocols can differ. Some entries were tested several times; the values are given in rising order. Some T/C values are marked as having no survivor count here; that says nothing about deaths at the dose. Some T/C values are followed by the survivors on the day toxicity was checked, most often the fifth; without a count or a note in brackets, all were alive then.

The experiment deals with L1210 leukemia ip in BDF1 mice, survival T/C. The experiment is described as follows: NCI In Vivo Anticancer Drug Screen. Data for tumor model L1210 Leukemia (intraperitoneal) in B6D2F1 (BDF1) mice. The settings on record: T/C endpoint: mean survival time, higher T/C = longer survival.
[1] abbreviates: dose: 66.0 mg/kg/injection, schedule: Q01DX009 (ip), vehicle: saline.
Where [2] appears, read: dose: 75.0 mg/kg/injection, schedule: Q01DX001 (ip), vehicle: saline.
Setting [3] is: dose: 100.0 mg/kg/injection, schedule: Q01DX009 (ip), vehicle: saline.
[4] abbreviates: dose: 300.0 mg/kg/injection, schedule: Q01DX001 (ip), vehicle: saline.
Setting [5] is: dose: 400.0 mg/kg/injection, schedule: Q01DX009 (ip), vehicle: saline.
Where [6] appears, read: dose: 400.0 mg/kg/injection, schedule: Q04DX003 (ip), vehicle: saline.
Setting [7] is: dose: 100.0 mg/kg/injection, schedule: Q04DX003 (ip), vehicle: Klucel (hydroxypropylcellulose) (HPC).
Setting [8] is: dose: 200.0 mg/kg/injection, schedule: Q04DX003 (ip), vehicle: Klucel (hydroxypropylcellulose) (HPC).
The mark [9] stands for this setting: dose: 400.0 mg/kg/injection, schedule: Q04DX003 (ip), vehicle: Klucel (hydroxypropylcellulose) (HPC).

Consider `CC1(C)CN1P(=O)(Nc1ncccn1)N1CC1(C)C` (configuration not stated), for which the T/C (dose: 25.0 mg/kg/injection, schedule: Q04DX003 (ip), vehicle: saline) was 105 % of control; the T/C (dose: 29.0 mg/kg/injection, schedule: Q01DX009 (ip), vehicle: saline) was 132 % of control; the T/C (dose: 44.0 mg/kg/injection, schedule: Q01DX009 (ip), vehicle: saline) is 125 % of control; the T/C (dose: 50.0 mg/kg/injection, schedule: Q01DX001 (ip), vehicle: saline) was 126 % of control; the T/C (dose: 50.0 mg/kg/injection, schedule: Q04DX003 (ip), vehicle: saline) was 113 % of control; the T/C (dose: 52.0 mg/kg/injection, schedule: Q01DX009 (ip), vehicle: saline) was 123 % of control. Moreover, the T/C was 138 % of control under setting [1]; 126 % of control under setting [2]; 124 % of control (dose: 79.0 mg/kg/injection, schedule: Q01DX009 (ip), vehicle: saline); 142 % of control (dose: 89.0 mg/kg/injection, schedule: Q01DX001 (ip), vehicle: saline); 115 % of control (dose: 90.0 mg/kg/injection, schedule: Q04DX003 (ip), vehicle: saline); 150 % of control under setting [3]. Moreover, the T/C reads like this: (dose: 118.0 mg/kg/injection, schedule: Q01DX001 (ip), vehicle: saline) 127 and 148 % of control; (dose: 118.0 mg/kg/injection, schedule: Q01DX009 (ip), vehicle: saline) 131 % of control; (dose: 118.0 mg/kg/injection, schedule: Q04DX003 (ip), vehicle: saline) 140 % of control; (dose: 133.0 mg/kg/injection, schedule: Q01DX001 (ip), vehicle: saline) 130 % of control; (dose: 177.0 mg/kg/injection, schedule: Q01DX001 (ip), vehicle: saline) 130 and 171 % of control; (dose: 177.0 mg/kg/injection, schedule: Q01DX009 (ip), vehicle: saline) 149 % of control. Also, the T/C was 143 % of control (dose: 177.0 mg/kg/injection, schedule: Q04DX003 (ip), vehicle: saline); 125 % of control (dose: 200.0 mg/kg/injection, schedule: Q01DX001 (ip), vehicle: saline); 214 % of control (dose: 200.0 mg/kg/injection, schedule: Q01DX009 (ip), vehicle: saline); 140 and 204 % of control (dose: 266.0 mg/kg/injection, schedule: Q01DX001 (ip), vehicle: saline); 152 % of control (dose: 266.0 mg/kg/injection, schedule: Q01DX009 (ip), vehicle: saline); 150 % of control (dose: 266.0 mg/kg/injection, schedule: Q04DX003 (ip), vehicle: saline). In addition, the T/C runs as follows: under setting [4], 127 % of control; (dose: 400.0 mg/kg/injection, schedule: Q01DX001 (ip), vehicle: saline) 135 and 153 % of control; under setting [5], 160 % of control; under setting [6], 192 % of control; (dose: 600.0 mg/kg/injection, schedule: Q01DX001 (ip), vehicle: saline) 155 % of control; (dose: 800.0 mg/kg/injection, schedule: Q01DX001 (ip), vehicle: saline) 203 % of control. Also, the survivor count under setting [5] is reported as 5 of 6.

With `CCOP(O)OCC.[Hg]`, the T/C runs as follows: (dose: 100.0 mg/kg/injection, schedule: Q04DX003 (ip), vehicle: saline) 93 % of control; (dose: 200.0 mg/kg/injection, schedule: Q04DX003 (ip), vehicle: saline) 96 % of control; under setting [6], 90 % of control [5 of 6 alive].

As for `O=[N+]([O-])N=c1[nH]cc[nH]1`, the T/C under setting [7] is 94 % of control, the T/C under setting [8] is 104 % of control and the T/C under setting [9] was 104 % of control.

For `Nc1c([N+](=O)[O-])cc([N+](=O)[O-])cc1[N+](=O)[O-]`, the T/C by setting is: (dose: 100.0 mg/kg/injection, schedule: Q01DX009 (ip), vehicle: Klucel (hydroxypropylcellulose) (HPC)) 92 % of control [survivor count not shown]; under setting [7], 101 % of control [survivor count not shown]; (dose: 200.0 mg/kg/injection, schedule: Q01DX009 (ip), vehicle: Klucel (hydroxypropylcellulose) (HPC)) 93 % of control [survivor count not shown]; under setting [8], 98 % of control [survivor count not shown]; (dose: 400.0 mg/kg/injection, schedule: Q01DX009 (ip), vehicle: Klucel (hydroxypropylcellulose) (HPC)) 94 % of control [survivor count not shown]; under setting [9], 98 % of control [survivor count not shown].

Turning to `O=C(Nc1ccc(Br)cc1)NP(=O)(Nc1ccccc1)Nc1ccccc1`, the T/C (dose: 50.0 mg/kg/injection, schedule: Q01DX001 (ip), vehicle: other) was 101 % of control; the T/C (dose: 100.0 mg/kg/injection, schedule: Q01DX001 (ip), vehicle: other) was 87 % of control; the T/C (dose: 200.0 mg/kg/injection, schedule: Q01DX001 (ip), vehicle: other) is 87 % of control; the T/C (dose: 400.0 mg/kg/injection, schedule: Q01DX001 (ip), vehicle: other) is 87 % of control.

For the compound `O=Nc1ccc(N(CCCl)CCCl)cc1`, the T/C by setting is: (dose: 66.0 mg/kg/injection, schedule: Q01DX001 (sc), vehicle: olive oil, sesame oil, peanut oil) 102 % of control; under setting [1], 120 % of control; under setting [2], 123 % of control; (dose: 100.0 mg/kg/injection, schedule: Q01DX001 (sc), vehicle: olive oil, sesame oil, peanut oil) 94 % of control [4 of 6 alive]; under setting [3], 115 % of control; (dose: 150.0 mg/kg/injection, schedule: Q01DX001 (ip), vehicle: saline) 147 % of control. Moreover, the T/C is, setting by setting: (dose: 150.0 mg/kg/injection, schedule: Q01DX009 (ip), vehicle: saline) 100 % of control; (dose: 225.0 mg/kg/injection, schedule: Q01DX001 (sc), vehicle: olive oil, sesame oil, peanut oil) 87 % of control; under setting [4], 118 % of control. Further, the survivor count is given as 0 of 6 (dose: 150.0 mg/kg/injection, schedule: Q01DX001 (sc), vehicle: olive oil, sesame oil, peanut oil) and 6 of 6 (dose: 225.0 mg/kg/injection, schedule: Q01DX009 (ip), vehicle: saline).

As to `CC1=CC(C)(C)P(=O)(Cl)O1` (configuration not stated), the T/C is 100 % of control (dose: 100.0 mg/kg/injection, schedule: Q01DX009 (ip), vehicle: saline with Tween-80); 97 % of control (dose: 100.0 mg/kg/injection, schedule: Q04DX003 (ip), vehicle: saline with Tween-80); 98 % of control [5 of 6 alive] (dose: 200.0 mg/kg/injection, schedule: Q01DX009 (ip), vehicle: saline with Tween-80); 97 % of control (dose: 200.0 mg/kg/injection, schedule: Q04DX003 (ip), vehicle: saline with Tween-80); 98 % of control (dose: 400.0 mg/kg/injection, schedule: Q04DX003 (ip), vehicle: saline with Tween-80). The survivor count (dose: 400.0 mg/kg/injection, schedule: Q01DX009 (ip), vehicle: saline with Tween-80) is reported as 3 of 6.

As for `CCN(CC)CCOC(=O)C(O)(c1ccccc1)c1ccc(C)c(C)c1C` (configuration not stated), the T/C is 100 % of control (dose: 9.38 mg/kg/injection, schedule: Q01DX001 (ip), vehicle: steroid suspending solution); 96 % of control (dose: 18.75 mg/kg/injection, schedule: Q01DX001 (ip), vehicle: steroid suspending solution); 98 % of control (dose: 37.5 mg/kg/injection, schedule: Q01DX001 (ip), vehicle: steroid suspending solution).
